Measurements as given in patent publication US6443945B1, “Laser assisted pharmaceutical delivery and fluid removal” (Transmedica International, Inc., priority 1993, dated 2002).

Conditions: 60 mJ pulse plus 30% lidocaine solution, one volunteer

CCN(CC)CC(=O)Nc1c(C)cccc1C [Lidocaine, lidocaine]
irritation / need for medical treatment: no irritation
